No constants are given. Whether binding was seen depends on the method and setting. Sequences can lack the tags named with a protein.
Target: VERNALIZATION5/VIN3-LIKE 3 (VEL3), yeast two-hybrid fusion (Arabidopsis thaliana)
Experiment: two-hybrid

B1: HD2C, yeast two-hybrid fusion (protein, UniProt Q9LZR5 1-294)
chain: MEFWGVEVKNGKPLHLDPGLDRLVHISQVALGESKNNVTEPIQLYVTVGSDKLLIGTLSHEKFPQLSTEIVLERNFALSHTWKNGSVFFSGYKVDASDPEPEDLIDDQLEAAGFKAAPKSAAKQVNFQLPNEDVKAKQDDDADGSEEDSSDDDDSENSGDEEEEKVTAESDSEEDDSSDDEEDDSSEEETPKKPEEPKKRSAEPNSSKNPASNKKAKFVTPQKTDSKKPHVHVATPHPSKQAGKNSGGGSTGETSKQQQTPKSAGAFGCKSCTRTFTSEMGLQSHTKAKHSAAA
B1 was tested, and the binding was “no binding”.
